Measurements reported in PubChem BioAssay AID1259405 (NCATS, 2018)

- Test: 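Knock-downs that lift recombinant protein yield in hamster ovary cells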 (primary screen)
- System: Chinese hamster CHO-K1 ovary cells with stable secreted eGFP expression
- Reagent: single siRNA against mouse genes, 0.8 pmol siRNA per well (2 µl of 400 nM stock)
- Time to read-out: 3 days
- Detection: 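Per-well intracellular GFP measured by laser scanning cytometry, plus viability from ATP luminescence, each relative to plate median of non-targeting control wells, in %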
- Reading the numbers: GFP, % of control: higher = more GFP per well, higher productivity; viability (ATP), % of control: higher = more viable cells (more ATP)
- Rule for the call: 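Called active when intracellular GFP, relative to negative control, is at or above 120%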
The deposit covers about 50,000 reagents; this is a part drawn at random. Of all reagents, about 4,000 (8%) were called active. 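Mouse siRNA library applied to hamster cells; one well for each siRNA.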 Entries without a mark were called inactive. Reagents against one gene are numbered here. No sequences are given here.

Depletion of Zmiz2 (zinc finger, MIZ-type containing 2) #1 gave: GFP, % of control 104; viability (ATP), % of control 102. Zmiz2 (zinc finger, MIZ-type containing 2) #2 gave GFP, % of control 32.9; viability (ATP), % of control 35.7. Depletion of Zmiz2 (zinc finger, MIZ-type containing 2) #3 came out at: GFP, % of control 121 (active); viability (ATP), % of control 82.6. Silencing of Or7d11 (olfactory receptor family 7 subfamily D member 11) #1 came out at: GFP, % of control 49.9; viability (ATP), % of control 41.5. Or7d11 (olfactory receptor family 7 subfamily D member 11) #2 showed GFP, % of control 42.2; viability (ATP), % of control 70.8. After knock-down of Or7d11 (olfactory receptor family 7 subfamily D member 11) #3, the screen gave GFP, % of control 100; viability (ATP), % of control 101.

Knock-down of Pgam5 (phosphoglycerate mutase family member 5) #1 gave: GFP, % of control 72.4; viability (ATP), % of control 65. With knock-down of Pgam5 (phosphoglycerate mutase family member 5) #2, the record shows GFP, % of control 74.7; viability (ATP), % of control 98.2. Against Pgam5 (phosphoglycerate mutase family member 5) #3 the deposit lists GFP, % of control 89.6; viability (ATP), % of control 104. Silencing of St6galnac1 #1 gave: GFP, % of control 71.2; viability (ATP), % of control 80.6. With knock-down of St6galnac1 #2 the results were GFP, % of control 67; viability (ATP), % of control 89.1. For St6galnac1 #3, the entry reads GFP, % of control 79.6; viability (ATP), % of control 104.

Kif22 (kinesin family member 22) #1 scored GFP, % of control 59.7; viability (ATP), % of control 72.3. Kif22 (kinesin family member 22) #2 scored GFP, % of control 75.8; viability (ATP), % of control 59.1. With knock-down of Arhgap44 (Rho GTPase activating protein 44) #1 the results were GFP, % of control 66.2; viability (ATP), % of control 63.9. Arhgap44 (Rho GTPase activating protein 44) #2 gave GFP, % of control 61.7; viability (ATP), % of control 89.7. After knock-down of Arhgap44 (Rho GTPase activating protein 44) #3, the screen gave GFP, % of control 59.1; viability (ATP), % of control 73.6. Gimap1 (GTPase, IMAP family member 1) #1 gave GFP, % of control 76; viability (ATP), % of control 76.6.

For Gimap1 (GTPase, IMAP family member 1) #2 the deposit lists GFP, % of control 97.8; viability (ATP), % of control 70.4. With knock-down of Gimap1 (GTPase, IMAP family member 1) #3, the screen gave GFP, % of control 92.2; viability (ATP), % of control 111. Myo5a (myosin VA) #1 showed GFP, % of control 79.2; viability (ATP), % of control 63.7. Myo5a (myosin VA) #2 showed GFP, % of control 63.2; viability (ATP), % of control 67. Mrgpra3 (MAS-related GPR, member A3) #1 showed GFP, % of control 45.2; viability (ATP), % of control 51.6. Mrgpra3 (MAS-related GPR, member A3) #2 gave GFP, % of control 90; viability (ATP), % of control 86.6.

Knock-down of Mrgpra3 (MAS-related GPR, member A3) #3 came out at: GFP, % of control 56.2; viability (ATP), % of control 41. Against Tma7 (translational machinery associated 7) #1, the entry reads GFP, % of control 98.1; viability (ATP), % of control 89.6. Tma7 (translational machinery associated 7) #2 gave GFP, % of control 119; viability (ATP), % of control 77.4. Against Tma7 (translational machinery associated 7) #3 the deposit lists GFP, % of control 91.9; viability (ATP), % of control 39.4. Knock-down of Or6c5 (olfactory receptor family 6 subfamily C member 5) #1 resulted in: GFP, % of control 103; viability (ATP), % of control 97.5. With knock-down of Or6c5 (olfactory receptor family 6 subfamily C member 5) #2, the record shows GFP, % of control 90.5; viability (ATP), % of control 73.6.

Silencing of Or6c5 (olfactory receptor family 6 subfamily C member 5) #3 resulted in: GFP, % of control 100; viability (ATP), % of control 104. With knock-down of Atp8b1 (ATPase, class I, type 8B, member 1) #1, the screen gave GFP, % of control 66.9; viability (ATP), % of control 80.1. Silencing of Atp8b1 (ATPase, class I, type 8B, member 1) #2 gave: GFP, % of control 91.7; viability (ATP), % of control 93.4. For Atp8b1 (ATPase, class I, type 8B, member 1) #3, the entry reads GFP, % of control 93.4; viability (ATP), % of control 120. Ube2c (ubiquitin-conjugating enzyme E2C) #1 showed GFP, % of control 14.7; viability (ATP), % of control 35.4. With knock-down of Ube2c (ubiquitin-conjugating enzyme E2C) #2 the results were GFP, % of control 83.9; viability (ATP), % of control 74.7.

After knock-down of Ube2c (ubiquitin-conjugating enzyme E2C) #3 the results were GFP, % of control 84.4; viability (ATP), % of control 132. Depletion of Cd44 (CD44 antigen) #1 came out at: GFP, % of control 117; viability (ATP), % of control 110. With knock-down of Cd44 (CD44 antigen) #2, the record shows GFP, % of control 156 (active); viability (ATP), % of control 97.4. Depletion of Dpf3 (double PHD fingers 3) #1 resulted in: GFP, % of control 95.1; viability (ATP), % of control 90.9. Dpf3 (double PHD fingers 3) #2 gave GFP, % of control 88.4; viability (ATP), % of control 63.3. Against Dpf3 (double PHD fingers 3) #3, the values are GFP, % of control 38.4; viability (ATP), % of control 64.4.
